PubChem BioAssay AID743454, Peter MacCallum Cancer Centre, 2014
Assay: 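Search for knock-downs that restore vorinostat killing in resistant colon cancer cells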 (primary screen). Cells: human HCT116-VR colon cancer cells, selected for vorinostat resistance. Reagent: siRNA pool against human genes, 40 nM siRNA pool. Time to read-out: vorinostat for 24 h, read-out about 72 h after transfection. Conditions: vorinostat at 2.5 µM final. Measurement: 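Cell viability by CellTiter-Fluor and caspase 3/7 activity by luminescence, each scaled to mock wells per plate, duplicates averaged, then robust z-scored over all plates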. Reading the numbers: viability robust z-score: higher = more viable cells than screen typical; caspase robust z-score: higher = more caspase 3/7 activity than screen typical. Active means: 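a knock-down is a hit when classed RV1 or RV2 for lowered viability, or CA1 or CA2 for caspase activation; those lethal without drug were dropped; hits were retested singly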.
Here is a random part of about 18,000 reagents tested. Over the whole deposit, 450 (2.5%) got an active call. 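Single biological run; no consistent viability z cut-off exists, so the class columns, not z-scores, define the calls.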 A number with no mark means an inactive call.

gene | viability hit class | caspase hit class | viability robust z-score | caspase robust z-score
CAPN13 (calpain 13) | no change | no change | -0.2 | -0.7
RNF207 (ring finger protein 207) | no change | no change | 0.36 | -0.01
SSH2 (slingshot protein phosphatase 2) | no change | no change | -0.07 | 0.2
OR4D10 (olfactory receptor family 4 subfamily D member 10) | no change | no change | 1.08 | 0.62
SNAPC3 (small nuclear RNA activating complex polypeptide 3) | no change | no change | 0.17 | -0.74
PPM1E (protein phosphatase, Mg2+/Mn2+ dependent 1E) | no change | no change | -2.04 | 0.84
OLAH (oleoyl-ACP hydrolase) | no change | no change | -1.86 | -0.73
OLIG3 (oligodendrocyte transcription factor 3) | no change | no change | -0.08 | -0.16
AVPI1 (arginine vasopressin induced 1) | no change | no change | -0.97 | 0.8
CDC42BPG (CDC42 binding protein kinase gamma) | no change | no change | -0.08 | -1
FAM221A (family with sequence similarity 221 member A) | no change | no change | 0.42 | 1.11
VAV1 (vav guanine nucleotide exchange factor 1) | no change | no change | 0.22 | -0.9
ATG101 (autophagy related 101) | no change | no change | 0.75 | -0.04
CLIC2 (CLIC family member 2) | no change | no change | 0.41 | 0.13
ATR (ATR checkpoint kinase) | no change | no change | -0.38 | -0.46
TST (thiosulfate sulfurtransferase) | no change | no change | 0.25 | -0.09
CTAGE15 (CTAGE family member 15) | no change | no change | -1.17 | -0.34
MRPS2 (mitochondrial ribosomal protein S2) | no change | no change | -0.57 | 3.56
AMT (aminomethyltransferase) | no change | no change | -2.2 | 0.29
CFAP69 (cilia and flagella associated protein 69) | no change | no change | 0.84 | -0.52
H2AC16 (H2A clustered histone 16) | no change | no change | -1.16 | -1.02
IL17B (interleukin 17B) | no change | no change | 0.57 | 1.8
ATAT1 (alpha tubulin acetyltransferase 1) | no change | no change | -0.28 | -0.82
TRPC3 | no change | no change | -1.66 | -1.03
NPY4R (neuropeptide Y receptor Y4) | no change | no change | -1.88 | 4.97
CXCL10 (C-X-C motif chemokine ligand 10) | no change | no change | 1.21 | -0.52
TTC16 (tetratricopeptide repeat domain 16) | no change | no change | 1.06 | -0.04
ABTB2 (ankyrin repeat and BTB domain containing 2) | no change | no change | 1 | 1.26

Ordered by “caspase robust z-score” (lowest first): some entries from above.
gene | viability hit class | caspase hit class | viability robust z-score | caspase robust z-score
CDC42BPG (CDC42 binding protein kinase gamma) | no change | no change | -0.08 | -1
VAV1 (vav guanine nucleotide exchange factor 1) | no change | no change | 0.22 | -0.9
OLAH (oleoyl-ACP hydrolase) | no change | no change | -1.86 | -0.73
ATR (ATR checkpoint kinase) | no change | no change | -0.38 | -0.46
OLIG3 (oligodendrocyte transcription factor 3) | no change | no change | -0.08 | -0.16
ATG101 (autophagy related 101) | no change | no change | 0.75 | -0.04
CLIC2 (CLIC family member 2) | no change | no change | 0.41 | 0.13
AVPI1 (arginine vasopressin induced 1) | no change | no change | -0.97 | 0.8
FAM221A (family with sequence similarity 221 member A) | no change | no change | 0.42 | 1.11

Additional reagents follow:
gene | viability hit class | caspase hit class | viability robust z-score | caspase robust z-score
SYNPO2 (synaptopodin 2) | no change | no change | 0.51 | 0.55
PPP1R3F (protein phosphatase 1 regulatory subunit 3F) | no change | no change | 0.26 | -0.28
ATP2A1 | no change | no change | -2.15 | 0.8
CAPS (calcyphosine) | no change | no change | -0.18 | -0.05
OSBP (oxysterol binding protein) | no change | no change | -0.41 | -0.29
OR8G2P (olfactory receptor family 8 subfamily G member 2 pseudogene) | no change | no change | 1.15 | 0.02
HK3 (hexokinase 3) | no change | no change | 0.04 | 1.64
GRAMD4 (GRAM domain containing 4) | no change | no change | 0.4 | -0.11
ALOX5AP (arachidonate 5-lipoxygenase activating protein) | no change | no change | 0.46 | 0.34
CSTF1 (cleavage stimulation factor subunit 1) | no change | no change | 0.42 | -0.59
PUS3 (pseudouridine synthase 3) | no change | no change | 0.72 | 0.04
SEC14L4 (SEC14 like lipid binding 4) | no change | no change | -1.6 | 1.02
DOCK11 (dedicator of cytokinesis 11) | no change | no change | -1.65 | 1.84
DUSP19 (dual specificity phosphatase 19) | no change | no change | 1.17 | -0.57
DMD (dystrophin) | no change | no change | 0.45 | 0.12
IKBKG | no change | no change | 1.04 | 0.04
TIGD4 (tigger transposable element derived 4) | no change | no change | -0.6 | -0.79
HSD3B7 | no change | no change | -2.41 | 2.04
ZDHHC4 (zDHHC palmitoyltransferase 4) | no change | no change | 0.16 | 1.43
KRTAP10-2 (keratin associated protein 10-2) | no change | no change | -1.23 | 3.46
CLIC5 (CLIC family member 5) | no change | no change | -0.16 | 3.23
LCE2A (late cornified envelope 2A) | no change (active) | CA2 (caspase activation) | -0.92 | 5.92
CTU2 (cytosolic thiouridylase subunit 2) | no change | no change | -0.93 | 1.49
KRT7 (keratin 7) | no change | no change | -0.54 | -0.8
ST13 (ST13 Hsp70 interacting protein) | no change | no change | 0.7 | 1.38
XPO4 (exportin 4) | no change | no change | -1.4 | 1.64
BHMT2 (betaine--homocysteine S-methyltransferase 2) | no change | no change | -0.43 | 0.81
SAMM50 (SAMM50 sorting and assembly machinery component) | no change | no change | -2.12 | 2.46
MSMO1 (methylsterol monooxygenase 1) | no change | no change | -0.13 | -0.74
